Measurements: article doi:10.1101/710202
No constants are given. Whether binding was seen depends on the method and setting. Binding seen in cells or lysates may run through a third protein. Some binding calls cover weakened binding; strength is not graded here. Tags and fused reporters may be left off the sequences shown.

By UniProt entry, the sequences of proteins in these tests, tags left out.
UniProt A0A8I3PSX6: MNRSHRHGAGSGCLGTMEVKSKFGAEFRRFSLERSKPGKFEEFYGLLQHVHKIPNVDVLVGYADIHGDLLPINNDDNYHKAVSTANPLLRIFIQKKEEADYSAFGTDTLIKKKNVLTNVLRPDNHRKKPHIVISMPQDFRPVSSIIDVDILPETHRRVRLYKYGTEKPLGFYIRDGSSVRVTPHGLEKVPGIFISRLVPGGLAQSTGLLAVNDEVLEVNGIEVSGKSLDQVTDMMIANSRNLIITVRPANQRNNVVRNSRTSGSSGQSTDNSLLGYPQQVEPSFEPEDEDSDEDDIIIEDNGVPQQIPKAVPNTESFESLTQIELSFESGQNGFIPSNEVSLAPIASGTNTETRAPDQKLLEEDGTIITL
UniProt E2QYC9: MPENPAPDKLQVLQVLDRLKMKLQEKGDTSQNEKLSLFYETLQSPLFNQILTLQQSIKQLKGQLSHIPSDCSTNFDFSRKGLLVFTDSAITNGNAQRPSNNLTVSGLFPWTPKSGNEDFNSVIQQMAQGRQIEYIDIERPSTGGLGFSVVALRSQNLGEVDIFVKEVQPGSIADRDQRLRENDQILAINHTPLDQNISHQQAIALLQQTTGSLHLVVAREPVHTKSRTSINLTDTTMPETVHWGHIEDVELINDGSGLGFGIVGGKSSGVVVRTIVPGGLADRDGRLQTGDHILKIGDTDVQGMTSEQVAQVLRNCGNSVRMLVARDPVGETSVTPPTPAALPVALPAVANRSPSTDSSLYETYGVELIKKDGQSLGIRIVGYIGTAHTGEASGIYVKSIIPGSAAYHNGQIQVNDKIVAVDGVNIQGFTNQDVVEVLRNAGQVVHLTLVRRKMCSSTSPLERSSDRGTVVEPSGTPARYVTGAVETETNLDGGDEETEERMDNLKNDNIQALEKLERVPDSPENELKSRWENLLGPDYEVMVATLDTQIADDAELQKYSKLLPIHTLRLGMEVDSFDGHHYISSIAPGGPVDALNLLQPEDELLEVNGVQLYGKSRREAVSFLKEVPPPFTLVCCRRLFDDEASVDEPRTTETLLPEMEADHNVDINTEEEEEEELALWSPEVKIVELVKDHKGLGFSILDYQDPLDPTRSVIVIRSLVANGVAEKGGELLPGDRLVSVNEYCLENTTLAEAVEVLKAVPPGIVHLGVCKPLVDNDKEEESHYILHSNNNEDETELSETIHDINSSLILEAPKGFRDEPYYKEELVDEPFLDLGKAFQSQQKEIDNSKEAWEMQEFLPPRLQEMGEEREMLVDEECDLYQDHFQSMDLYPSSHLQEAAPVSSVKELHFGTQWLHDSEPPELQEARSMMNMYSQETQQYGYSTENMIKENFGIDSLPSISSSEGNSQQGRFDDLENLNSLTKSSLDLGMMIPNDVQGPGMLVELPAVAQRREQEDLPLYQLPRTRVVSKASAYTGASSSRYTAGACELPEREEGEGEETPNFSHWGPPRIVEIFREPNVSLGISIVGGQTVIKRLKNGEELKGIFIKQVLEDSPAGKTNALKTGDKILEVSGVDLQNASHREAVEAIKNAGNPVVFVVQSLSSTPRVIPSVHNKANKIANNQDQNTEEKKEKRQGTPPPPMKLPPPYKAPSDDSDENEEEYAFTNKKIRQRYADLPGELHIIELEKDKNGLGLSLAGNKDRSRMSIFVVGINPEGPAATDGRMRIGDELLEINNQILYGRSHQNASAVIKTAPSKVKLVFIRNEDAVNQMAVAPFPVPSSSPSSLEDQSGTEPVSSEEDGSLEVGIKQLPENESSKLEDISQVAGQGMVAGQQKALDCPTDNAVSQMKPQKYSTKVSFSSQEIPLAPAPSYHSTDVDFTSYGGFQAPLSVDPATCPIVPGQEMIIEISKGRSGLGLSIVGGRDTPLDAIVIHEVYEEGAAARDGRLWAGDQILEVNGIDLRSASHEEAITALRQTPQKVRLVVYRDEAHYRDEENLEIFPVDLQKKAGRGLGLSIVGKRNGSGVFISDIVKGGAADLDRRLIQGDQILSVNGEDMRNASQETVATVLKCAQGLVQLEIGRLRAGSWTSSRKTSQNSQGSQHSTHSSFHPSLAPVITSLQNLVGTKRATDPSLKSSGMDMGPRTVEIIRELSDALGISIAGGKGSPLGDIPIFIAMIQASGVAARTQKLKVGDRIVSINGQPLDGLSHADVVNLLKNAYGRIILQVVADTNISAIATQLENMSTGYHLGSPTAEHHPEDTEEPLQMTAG

T1: Pals1-APEX2-EGFP (UniProt Q8N3R9)
T1 sequence: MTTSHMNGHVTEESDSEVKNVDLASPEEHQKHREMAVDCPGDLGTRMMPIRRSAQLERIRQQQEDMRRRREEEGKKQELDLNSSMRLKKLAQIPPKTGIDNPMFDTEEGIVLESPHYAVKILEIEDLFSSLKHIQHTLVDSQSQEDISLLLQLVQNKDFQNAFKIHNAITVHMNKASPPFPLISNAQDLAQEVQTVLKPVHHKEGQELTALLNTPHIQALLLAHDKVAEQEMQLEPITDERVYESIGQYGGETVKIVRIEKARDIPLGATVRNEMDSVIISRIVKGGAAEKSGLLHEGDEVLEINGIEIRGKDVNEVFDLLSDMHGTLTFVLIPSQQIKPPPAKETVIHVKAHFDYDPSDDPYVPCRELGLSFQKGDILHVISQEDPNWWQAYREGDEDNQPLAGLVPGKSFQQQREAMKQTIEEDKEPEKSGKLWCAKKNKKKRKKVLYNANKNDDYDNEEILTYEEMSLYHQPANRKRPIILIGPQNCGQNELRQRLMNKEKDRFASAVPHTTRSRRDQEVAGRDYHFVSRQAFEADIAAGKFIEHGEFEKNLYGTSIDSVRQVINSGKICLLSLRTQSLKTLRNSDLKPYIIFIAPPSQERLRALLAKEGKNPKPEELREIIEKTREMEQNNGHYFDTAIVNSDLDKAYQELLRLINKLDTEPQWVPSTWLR

B1: Crumbs3 (protein, UniProt A0A5F4BST2 27-123)
chain: QTLDPHVNENGTITPSAPGSGSNGALSQEAITAIIVVFSLLAAVLLAVGLVLLLRKLREKRQTQGTYRPSSEEQFNHAAEARAPQDSKETVRGCLPI
B2: Occludin (protein, UniProt Q28269 1-521)
chain: MSSRPFESPPPYRPDEFKPNHYAPSNDVYGGDMHVRPMLSQPAYSFYPEDEILHFYKWTSPPGVIRILSMLVIVMCIAIFGCVASTLAWDRGYGTGLMGGSIGYPYGSGFGSYGTGYGYGFGYGYGYGGYTDPRAAKGFLLAMVAFCFIAALVIFVTSVIRSDISRTRRYYLTVIILSAFLGVMMFIATIVYIMGVNPTAQASGSLYSSQIYAMCNQFYASTATGLYMDQYLYHYCVVDPQEAIAIVLGFMVIVAFALIIFFAVKTRRKMDRYDKSNILWDKEHIYDEQPPNVEEWVKNVSAGTQDMPPPPSDYVERVDSPMAYSSNGKVNDKRLYPESSYKSTPVPEVVQELPATSPADDFRQPRYSSSGHLEPPSKRAPSKGRTGRPKRLEQDHYETDYTTGGESCDELEEDWIREYPPITSDQQRQLYKRNFDTGLQEYKSLQAELDEINKELSRLDKELDDYREESEEYMAAADEYNRLKQVKGSPDYKNKRNYCKQLKSKLSHIKKMVGDYDRQKT
B3: ZO-2 (protein, UniProt Q95168 1-1174)
chain: MEELIWEQYTVTLQKDSKRGFGIAVSGGRDNPHFENGETSIVISDVLPGGPADGLLQENDRVVMVNGTPMEDVLHSFAVQQLRKSGKIAAIVVKRPRKVQLAPPQGSLPVDEDDRAFEVMDEFDGRSARSGYSERSRRSSHGGRSRSWEDSPERGRPHERAWSQERERSRGRSLERGLDHDDDYRRPRERSRGRSLERGLDHDDDYGRPGERSHGMSTDRGYDRGYDRGYDRGYDRTYSPEAEYGRRTQPDARHAGSRSRSREHLRSRSPSPELRGRPDHAGQPDSDRPIGVLLMKSKANEEYGLRLGSQIFIKQMTRTALATKDGNLHEGDIILKINGTVTENMSLTDARKLIEKSRGKLQLVVLRDSKQTLINIPSLNDSDSEIEDISEIESNRSFSPEERRQQYSDYDYHSSNEKLKERPNSREDMQNRWSRMGATPTPFKSMGDIASVVGTENSKEPRYQEEPPAPQPKAAPRTFLRPSPEDEAIYGPNTKMVRFKKGDSVGLRLAGGNDVGIFVAGIQEGTSAEQEGLQEGDQILKVNTQDFRGLVREDAVLYLLEIPKGEMVTILAQSRADVYRDILACGRGDSFFIRSHFECEKETPQSLAFSRGEVFRVVDTLYDGKLGHWLAVRIGNELEKGLIPNKSRAEQMASVQNAQRDNAGDRADFWRMRGQRSGMKKNLRKSREDLTAAVSVSTKFPAYERVLLREAGFKRPVVLFGPIADIALEKLANELPDLFQTAKTEPKDAGSEKSSGVVRLNTVRQIIEQDKHALLDVTPKAVDLLNYTQWFPIVIFFNPDSRQGVKTMRQRLNPTSNKSSRKLYDQANKLKKTCAHLFTATINLNSANDSWFGSLKDTIQHQQGEAVWVSEGKMEGMDDDPEDRMSYLTAMGADYLSCDSRLISDFEDTDGEGGAYTDNELDEPAEEPLVSSITRSSEPVQHEESIRKPSPEPRAQMRRAASRDQLRDSSPPPAFKPEPPKAKTQNREESFDISRSHDYKSNPSAVAGNEVSGASTRSCPPPIAAKPSFGRSILKPSTPVPSPESEEVGEGSEEQEGAPKSVLGKVKIFEKMDHKARLQRMQELQEAQNARIEIAQKHPDIYAVPIKTHKPDPGLSQHTSSRPPEPQKGPSRLYQDPRGSYGSDAEEEEYRQQLSEHSKRGYYSQPSRYRDTEL

What follows are molecules tested against T1, Pals1-APEX2-EGFP (assay: co-IP).
Par6 (from UniProt A0A8I3PSX6 1-370) was tested, and the binding was “binds”. In the case of “Pals1-associated tight junction protein (from UniProt E2QYC9 1-1828)”, the binding is reported as “binds”. For B1, the binding was “binds”. With B2 the binding was “no binding”. For B3, the binding was “no binding”.
